# Reference: the supplement of paper PMC8728848
# This is one part of the list.
# B1: DCL-1 (Homo sapiens), Q8IX05 (protein)
# chain: MLRAALPALLLPLLGLAAAAVADCPSSTWIQFQDSCYIFLQEAIKVESIEDVRNQCTDHGADMISIHNEEENAFILDTLKKQWKGPDDILLGMFYDTDDASFKWFDNSNMTFDKWTDQDDDEDLVDTCAFLHIKTGEWKKGNCEVSSVEGTLCKTAIPYKRKYLSDNHILISALVIASTVILTVLGAIIWFLYKKHSDSRFTTVFSTAPQSPYNEDCVLVVGEENEYPVQFD
# Legend:
# Assay in all cases: glycan array binding signal (z-score within array); higher = stronger binding
# Conditions in all cases: glycan notation: IUPAC condensed, linker removed
# [1] = target: Neu5Ac(a2-3)Gal(b1-3)GalNAc6S
# How it was run: (§1)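 Glycan array binding is given as a within-array Z-score, which can be read as non-binding when negative. The arrays, 3228 of them, came from the Consortium for Functional Glycomics database and were retained only where the protein sequence was available. Z-scores were averaged across arrays of the same protein sequence at different concentrations or buffers and across linkers.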
# [2] = target: Neu5Ac(a2-3)Gal(b1-3)GlcNAc
# How it was run: as §1
# [3] = target: Neu5Ac(a2-3)Gal(b1-3)GlcNAc(b1-3)Gal(b1-3)GlcNAc
# How it was run: as §1
# [4] = target: Neu5Ac(a2-3)Gal(b1-3)GlcNAc(b1-3)Gal(b1-4)GlcNAc
# How it was run: as §1
# [5] = target: Neu5Ac(a2-3)Gal(b1-3)GlcNAc(b1-3)GalNAc
# How it was run: as §1
# [6] = target: Neu5Ac(a2-3)Gal(b1-3)GlcNAc6S
# How it was run: as §1
# [7] = target: Neu5Ac(a2-3)Gal(b1-3)[Fuc(a1-4)]GlcNAc
# How it was run: as §1
# [8] = target: Neu5Ac(a2-3)Gal(b1-3)[Fuc(a1-4)]GlcNAc(b1-3)Gal(b1-3)[Fuc(a1-4)]GlcNAc
# How it was run: as §1
# [9] = target: Neu5Ac(a2-3)Gal(b1-3)[Fuc(a1-4)]GlcNAc(b1-3)Gal(b1-4)[Fuc(a1-3)]GlcNAc
# How it was run: as §1
# [10] = target: Neu5Ac(a2-3)Gal(b1-3)[Neu5Ac(a2-3)Gal(b1-4)]GlcNAc
# How it was run: as §1
# [11] = target: Neu5Ac(a2-3)Gal(b1-3)[Neu5Ac(a2-6)]GalNAc
# How it was run: as §1
# Neu5Ac(a2-3)Gal(b1-4)Glc = target: Neu5Ac(a2-3)Gal(b1-4)Glc
# How it was run: as §1
# [12] = target: Neu5Ac(a2-3)Gal(b1-4)GlcNAc
# How it was run: as §1
# [13] = target: Neu5Ac(a2-3)Gal(b1-4)GlcNAc(b1-2)Man(a1-3)[GlcNAc(b1-2)Man(b1-4)GlcNAc(b1-2)Man(a1-6)]Man(b1-4)GlcNAc(b1-4)GlcNAc
# How it was run: as §1
# [14] = target: Neu5Ac(a2-3)Gal(b1-4)GlcNAc(b1-2)Man(a1-3)[Neu5Ac(a2-6)Gal(b1-4)GlcNAc(b1-2)Man(a1-6)]Man(b1-4)GlcNAc(b1-4)GlcNAc
# How it was run: as §1
# [15] = target: Neu5Ac(a2-3)Gal(b1-4)GlcNAc(b1-3)Gal
# How it was run: as §1
# [16] = target: Neu5Ac(a2-3)Gal(b1-4)GlcNAc(b1-3)Gal(b1-3)GlcNAc
# How it was run: as §1
# [17] = target: Neu5Ac(a2-3)Gal(b1-4)GlcNAc(b1-3)Gal(b1-4)GlcNAc
# How it was run: as §1
# [18] = target: Neu5Ac(a2-3)Gal(b1-4)GlcNAc(b1-3)Gal(b1-4)GlcNAc(b1-3)Gal(b1-4)GlcNAc
# How it was run: as §1
# [19] = target: Neu5Ac(a2-3)Gal(b1-4)GlcNAc(b1-3)Gal(b1-4)[Fuc(a1-3)]GlcNAc
# How it was run: as §1
# [20] = target: Neu5Ac(a2-3)Gal(b1-4)GlcNAc(b1-3)GalNAc
# How it was run: as §1
# [21] = target: Neu5Ac(a2-3)Gal(b1-4)GlcNAc(b1-6)[Gal(b1-3)]GalNAc
# How it was run: as §1
# [22] = target: Neu5Ac(a2-3)Gal(b1-4)GlcNAc(b1-6)[Neu5Ac(a2-3)Gal(b1-3)]GalNAc
# How it was run: as §1
# [23] = target: Neu5Ac(a2-3)Gal(b1-4)GlcNAc6S
# How it was run: as §1
# [24] = target: Neu5Ac(a2-3)Gal(b1-4)[Fuc(a1-3)]GlcNAc
# How it was run: as §1
# [25] = target: Neu5Ac(a2-3)Gal(b1-4)[Fuc(a1-3)]GlcNAc(b1-3)Gal
# How it was run: as §1
# [26] = target: Neu5Ac(a2-3)Gal(b1-4)[Fuc(a1-3)]GlcNAc(b1-3)Gal(b1-4)GlcNAc
# How it was run: as §1
# [27] = target: Neu5Ac(a2-3)Gal(b1-4)[Fuc(a1-3)]GlcNAc(b1-3)Gal(b1-4)[Fuc(a1-3)]GlcNAc(b1-3)Gal(b1-4)[Fuc(a1-3)]GlcNAc
# How it was run: as §1
# [28] = target: Neu5Ac(a2-3)Gal(b1-4)[Fuc(a1-3)]GlcNAc(b1-3)GalNAc
# How it was run: as §1
# [29] = target: Neu5Ac(a2-3)Gal(b1-4)[Fuc(a1-3)]GlcNAc(b1-6)[Gal(b1-3)]GalNAc
# How it was run: as §1
# [30] = target: Neu5Ac(a2-3)Gal(b1-4)[Fuc(a1-3)]GlcNAc6S
# How it was run: as §1
# [31] = target: Neu5Ac(a2-3)Gal6S(b1-4)GlcNAc
# How it was run: as §1
# [32] = target: Neu5Ac(a2-3)Gal6S(b1-4)[Fuc(a1-3)]GlcNAc
# How it was run: as §1
# Neu5Ac(a2-3)GalNAc = target: Neu5Ac(a2-3)GalNAc
# How it was run: as §1
# [33] = target: Neu5Ac(a2-3)GalNAc(b1-4)GlcNAc
# How it was run: as §1
# [34] = target: Neu5Ac(a2-3)[GalNAc(b1-4)]Gal(b1-4)Glc
# How it was run: as §1
# [35] = target: Neu5Ac(a2-3)[GalNAc(b1-4)]Gal(b1-4)GlcNAc
# How it was run: as §1
# [36] = target: Neu5Ac(a2-3)[GalNAc(b1-4)]Gal(b1-4)GlcNAc(b1-3)GalNAc
# How it was run: as §1
# [37] = target: Neu5Ac(a2-3)[Neu5Ac(a2-6)]GalNAc
# How it was run: as §1
# Neu5Ac(a2-6)Gal = target: Neu5Ac(a2-6)Gal
# How it was run: as §1
# [38] = target: Neu5Ac(a2-6)Gal(b1-3)GlcNAc(b1-3)[Gal(b1-4)GlcNAc(b1-6)]Gal(b1-4)Glc
# How it was run: as §1
# Neu5Ac(a2-6)Gal(b1-4)Glc = target: Neu5Ac(a2-6)Gal(b1-4)Glc
# How it was run: as §1
# [39] = target: Neu5Ac(a2-6)Gal(b1-4)GlcNAc
# How it was run: as §1
# [40] = target: Neu5Ac(a2-6)Gal(b1-4)GlcNAc(b1-2)Man(a1-3)Man(b1-4)GlcNAc(b1-4)GlcNAc
# How it was run: as §1
# [41] = target: Neu5Ac(a2-6)Gal(b1-4)GlcNAc(b1-2)Man(a1-3)[Gal(b1-4)GlcNAc(b1-2)Man(a1-6)]Man(b1-4)GlcNAc(b1-4)GlcNAc
# How it was run: as §1
binder,measurement,setting,value
B1,glycan array binding signal (z-score),[1],0.066
same,glycan array binding signal (z-score),[2],-0.114
same,glycan array binding signal (z-score),[3],1.43
same,glycan array binding signal (z-score),[4],-0.257
same,glycan array binding signal (z-score),[5],-0.021
same,glycan array binding signal (z-score),[6],0.514
same,glycan array binding signal (z-score),[7],1.14
same,glycan array binding signal (z-score),[8],-0.194
same,glycan array binding signal (z-score),[9],-0.022
same,glycan array binding signal (z-score),[10],0.512
same,glycan array binding signal (z-score),[11],0.682
same,glycan array binding signal (z-score),Neu5Ac(a2-3)Gal(b1-4)Glc,0.171
same,glycan array binding signal (z-score),[12],0.242
same,glycan array binding signal (z-score),[13],-1.07
same,glycan array binding signal (z-score),[14],0.261
same,glycan array binding signal (z-score),[15],1.98
same,glycan array binding signal (z-score),[16],0.181
same,glycan array binding signal (z-score),[17],-0.879
same,glycan array binding signal (z-score),[18],-0.828
same,glycan array binding signal (z-score),[19],-0.479
same,glycan array binding signal (z-score),[20],-1
same,glycan array binding signal (z-score),[21],-0.762
same,glycan array binding signal (z-score),[22],0.223
same,glycan array binding signal (z-score),[23],0.043
same,glycan array binding signal (z-score),[24],0.27
same,glycan array binding signal (z-score),[25],0.066
same,glycan array binding signal (z-score),[26],-0.487
same,glycan array binding signal (z-score),[27],-0.198
same,glycan array binding signal (z-score),[28],5.12
same,glycan array binding signal (z-score),[29],0.161
same,glycan array binding signal (z-score),[30],0.133
same,glycan array binding signal (z-score),[31],0.451
same,glycan array binding signal (z-score),[32],-0.162
same,glycan array binding signal (z-score),Neu5Ac(a2-3)GalNAc,0.625
same,glycan array binding signal (z-score),[33],-0.719
same,glycan array binding signal (z-score),[34],0.636
same,glycan array binding signal (z-score),[35],0.206
same,glycan array binding signal (z-score),[36],1.11
same,glycan array binding signal (z-score),[37],-1.09
same,glycan array binding signal (z-score),Neu5Ac(a2-6)Gal,-0.424
same,glycan array binding signal (z-score),[38],-0.428
same,glycan array binding signal (z-score),Neu5Ac(a2-6)Gal(b1-4)Glc,-0.195
same,glycan array binding signal (z-score),[39],-0.393
same,glycan array binding signal (z-score),[40],-0.43
same,glycan array binding signal (z-score),[41],0.469

# Three consecutive records from above, quoted:
binder,measurement,setting,value
B1,glycan array binding signal (z-score),[30],0.133
same,glycan array binding signal (z-score),[31],0.451
same,glycan array binding signal (z-score),[32],-0.162
